Test results taken from paper PMC4600727 (2015).

Columns and labels:
[1] = target: T1, GST-tagged Brat NHL (Drosophila) (UniProt Q8MQJ9); assay: pull-down; GST-tagged Brat NHL (8 μM) on GSH-Sepharose 4B, one partner (24 μM); 50 mM Tris pH 8.0, 100 mM NaCl, 1 mM DTT, 1 mM EDTA; 1 h at 4 °C; Coomassie; both purified
T1 sequence: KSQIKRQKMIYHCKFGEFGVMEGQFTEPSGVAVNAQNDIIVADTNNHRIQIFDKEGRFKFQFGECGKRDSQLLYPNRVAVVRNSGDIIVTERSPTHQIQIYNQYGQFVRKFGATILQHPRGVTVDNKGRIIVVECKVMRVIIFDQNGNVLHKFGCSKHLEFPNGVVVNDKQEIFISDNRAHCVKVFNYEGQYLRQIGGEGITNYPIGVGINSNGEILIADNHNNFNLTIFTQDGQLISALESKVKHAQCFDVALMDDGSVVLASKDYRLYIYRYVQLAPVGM

[2] = target: full-length Flag-Mira (Drosophila); assay: co-IP; HEK293T cotransfected with full-length Flag-Mira and HA-Stau or GFP–Brat; lysate on anti-Flag M2 affinity gel overnight; immunoblot
[3] = target: full-length Flag-Mira (Drosophila); assay: co-IP; competition: lysate with Flag-Mira and GFP–Brat on anti-Flag M2 affinity gel overnight with or without 0.8 mg purified Trx-Stau dsRBD5

Mira CBDL (aa 210–668) (Drosophila) (domain or fragment)
binding [1]: binds

B1: full-length GFP–Brat (protein, UniProt Q8MQJ9 1-1037)
chain: MASSPTPSLDSMRGGANSIESYEHAGYLSDSPLTLSGSSPPASDSAICSDEYTGGSSVKSRSEVTVINGHHPISASVSSSSSASSSSCSSSSSSSSSSSSSSSSTSGLSGCGSTSSSVISANNVASSNGPGVIGSNLQSSNNGGNSGISSLVVGAGKGSNSSSNSSSSNTSANGSPPRCTACKSKCSDAVAKCFECQSYLCANCVTAHEFMHCFNGHNVCLIKGFEASTTGTPLSVGSPSNNPASNEFKYASSLTMMLQQQQQLDSQQQQQQQQLLPAQPMSQLSKIVLAAAAQANSQEQQREDSIYGSLHPQQQQQQQQQQQRQLFCPRHKQELLKFSCRTCCILVCKECIVLEHSTGLHELENVQSPGMTTSTGSTANESALQTLLADMRGKIGEIVGIAGNSDQNLTKVKLQYQKAHNELNETHQFFASMLDERKTELLKELETLYTAKVNSNNSWQQRSRDLIDKGLATCEAVERSPAPPSSLLTEALLLRKSLEQQLQTGIQEMQLPFEIEFMSNYQSIQAGVRNTFGYIRANSSDGGPTGMSLTSNGHGKQPPIARPTQSASNSSASSAGSGHHGHHQQSHHHGHHNHHQTAHHQQLQAQSSLHGLGLGLSGASLLDSSSSAGGAVGAFSNGGLLLGGRDRNALAVEQHFGELMPKRGGGGYTGSNGSATSAVAHYNPYEKWSNGGSDNLFSSVTSGVSGSSAVADAFASLSAVGGSVVSGAGAGGSTVSSESLLDLTNKLLSATIYPPKSQIKRQKMIYHCKFGEFGVMEGQFTEPSGVAVNAQNDIIVADTNNHRIQIFDKEGRFKFQFGECGKRDSQLLYPNRVAVVRNSGDIIVTERSPTHQIQIYNQYGQFVRKFGATILQHPRGVTVDNKGRIIVVECKVMRVIIFDQNGNVLHKFGCSKHLEFPNGVVVNDKQEIFISDNRAHCVKVFNYEGQYLRQIGGEGITNYPIGVGINSNGEILIADNHNNFNLTIFTQDGQLISALESKVKHAQCFDVALMDDGSVVLASKDYRLYIYRYVQLAPVGM
binding [2]: binds
binding [3]: binds

No constants are given. Whether binding was seen depends on the method and setting. Binding calls can cover weak binding; strength is not graded here. Tags and fused reporters may be left off the sequences shown. For part of these data: Binding seen in cells or lysates may run through a third protein.
